Library screen at single concentrations

From ChEMBL document CHEMBL3988442, “University of Dundee, Small-Polar-MMV Screening Library” (2021).

Leishmania in macrophages: 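Cell assay of Leishmania donovani living inside macrophages; the read-out is not stated. Compounds at 30 µM. Direction is inferred from retests: higher values go with stronger inhibition. Size under these conditions: about 69,000 compounds, about 1,000 of them at 50% or above in at least one test.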
Toxoplasma: 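Assay of Toxoplasma gondii numbers, read through their beta-galactosidase reporter with a colour substrate. Compounds at 10 µM. Higher reads as fewer parasites (inferred from which compounds were picked for retests). About 67,000 compounds were tested under these conditions; 0.38% (about 260) showed 50% or more at least once.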

The filed quantity is “Percent Effect” (%). The record does not define 0% and 100%; most values in the screen are far below 50% and negative numbers occur (in some assays of this library far below -100). This is an unselected part of the compounds tested. Two or more numbers in one place are separate tests of the same structure; such repeats can differ widely. A dash means the value is not listed here; it may have been measured.

structure | Leishmania in macrophages | Toxoplasma
Cc1ccc(C(=O)N2CCN(Cc3nc(C(C)C)no3)CC2)c(=O)[nH]1 | -3.925 | 3.339
[H][C@@]12COC[C@]1(COCC(=O)N(C)C)CN(Cc1cc(C)on1)C2 | -3.123 | -1.04
CSc1ccc(CN(CCO)C(=O)CCc2cccc(F)c2)cc1 | -29.37 | -10.37
CC1CCc2nn(CCNC(=O)Cc3ccc(F)cc3)c(=O)cc2C1 (configuration not stated) | 5.667 | 15.85
CN(C)S(=O)(=O)N1CCC(c2ccncc2)CC1 | 4.079 | 16.64
O=C(CSC1CCc2ccccc2NC1=O)NCc1ccccc1 (configuration not stated) | -14.34 | -3.376
CCS(=O)(=O)N1CCC(Nc2ccc(C#N)cc2F)CC1 | -13.87 | -1.23
O=C(CN1CCOc2ccccc2C1)NCc1cc2n(n1)CCCNC2 | -6.825 | 0.918
Cc1ccccc1OCCC(=O)N(C)Cc1c(C)noc1C | 7.423 | 2.394
O=C(NCCO)c1cc(-c2ccc3c(c2)CCO3)n[nH]1 | -1.442 | 8.991
Cc1nc(COC[C@H]2CCC[C@]23CN(C2CCOC2)CCO3)cs1 (some centres not stated) | 16.36 | -9.706
CN1N=C(C(=O)N(Cc2ccco2)C2CC2)CCC1=O | 20.91 | 1.257
Cc1nnc(N2CCCC(C(=O)c3cccc(Cl)c3)C2)o1 (configuration not stated) | 4.101 | -2.875
Nc1nc(CN2CCOC(Cn3cccn3)C2)nc2ccccc12 (configuration not stated) | 13.67 | -2.346
Cc1nnc(CN(C)CC2CCCCC2)o1 | -22.89 | 2.798
c1ccc2c(c1)CCN(c1nc(N3CCOCC3)c3nn[nH]c3n1)C2 | 19.93 | 6.169
[H][C@@]12CS(=O)(=O)C[C@]1([H])N(C(=O)c1cc(C)on1)CCN2C(=O)CC(C)C | 32.21 | 4.651
Cc1cccc(CN2CCc3c(nc(N4CCC(C)CC4)[nH]c3=O)C2)n1 | 7.725 | 5.83
O=C(CCN1CCN(c2ccc3nncn3n2)CC1)N1CCCCC1 | 27.66 | -8.412
CC(C)(C#N)C(=O)Nc1nccn1Cc1ccc(Br)cc1 | -18.9 | -0.964
O=S1(=O)COCCN1CCCOc1ccc(F)cc1 | -3.308 | -5.055
CN(Cc1ccc(F)cc1C#N)CC(F)(F)F | 8.408 | 0.2674
COc1ccnc(NC(=O)CSCc2cccnc2)c1 | 25.51 | 0.2798
Cn1cnc2c1CCN(CC(O)c1ccc(S(C)(=O)=O)cc1)C2 (configuration not stated) | 18.61 | -4.533
[H][C@]12CCCCN1CCC[C@@]2(O)CN1CCN(Cc2ncccc2C)CC1 | 25.99 | 6.253
COc1ccccc1C(=O)N1CC(=O)N(C2CCCCC2)CC(O)C1 (configuration not stated) | -9.925 | -11.87
Cn1c(CCC(=O)N2CCCC3(CNC(=O)O3)C2)nc2cccnc21 (configuration not stated) | 16.09 | 20.17
CC(C)CC(C)NCCCN1CCCN(C)CC1 (configuration not stated) | -9.434 & -6.656 | 7.746
COc1ccc(-n2ccnc2-c2cnc(C(C)C)nc2)cc1C(=O)O | 30.38 | -5.918
COCCNc1ccccc1CNC(=O)NCc1ccc(C)s1 | -58.92 | 5.656
COc1ccc(CC(=O)NC2(C)CCS(=O)(=O)C2)cc1F (configuration not stated) | 30.02 | 12.82
COCCC1(CNC(=O)Nc2ccc(-n3nccn3)cc2)CCC1 | -11.84 | 23.41
[H][C@]12CCN(C(=O)c3ccccc3)CC[C@@]1([H])S(=O)(=O)N(CC(=O)N(C)C)C2 | 11.08 & -2.763 | 4.515
CCCc1cc(C(=O)N2CCCN(c3cccnn3)CC2)[nH]n1 | 7.212 | -6.533
CS(=O)(=O)NCC1CCN(Cc2cc3ccccc3[nH]c2=O)C1 (configuration not stated) | 6.29 | -0.6099
Cc1cc(S(=O)(=O)Nc2onc(C)c2C)c(C)s1 | 5.668 | -
COc1cccc(CNC(=O)c2ccccc2-n2cnc(CN)c2)c1 | -8.314 & 14.07 | 6.964
Cc1ccc(NC(=O)c2coc(C)n2)c(C)c1 | 1.703 | -3.751
O=S(=O)(NCc1ccccc1)N1CCN(c2ncccn2)CC1 | -24.29 | -7.876
COCCNc1ncc(-c2cccc(F)c2)c(-c2nccn2C)n1 | -7.345 | 15.96
Cc1cc(-c2cnn(CCNC(=O)CCn3cccn3)c2C2CC2)on1 | 11.08 & 20.85 | -6.472
CC(CC(=O)N1CCC(c2nnc3n2CCC3)CC1)n1cccc1 (configuration not stated) | -15.07 | 4.891
CCN(Cc1ccc(C#N)cc1F)C(=O)CN(C)CC(N)=O | 31.63 | 1.436
CC1CCC(N2Cc3nc(N)ncc3C2=O)CC1 (configuration not stated) | -33.84 | -0.06734
Cc1nn(C)c(Cl)c1C1CCCN1c1ncnc2sccc12 (configuration not stated) | 51.25 | -4.075
Cc1nn(-c2ccccn2)c(C)c1[C@@H]1C=C[C@@H](NC(=O)CCC(=O)O)C1 | -0.6489 | 4.968
O=C(Cc1noc(C(=O)NCCO)n1)Nc1cccc(C(F)(F)F)c1 | 4.426 | 0.3976
O=C(NCC1CC1)C1=NOC2(CCN(S(=O)(=O)c3ccc(F)cc3)C2)C1 (configuration not stated) | 21.79 | 3.508
COCCN1CCC2(CC1)CN(CCn1cccn1)C(=O)CO2.O=C(O)C(F)(F)F | 10.31 | 0.6627
CN(CCc1ccccc1)c1cnn(CC2COCCO2)c(=O)c1 (configuration not stated) | 22.1 | 20.03
CC(C)c1noc(C[S+]([O-])CC(=O)Nc2cc(F)ccc2F)n1 (configuration not stated) | 3.67 | 15.66
COc1ccccc1OCCC(=O)NC1CCc2nc(C)cn2C1 (configuration not stated) | 3.903 | -2.442
Cc1ccc2cc(CNCCCN3CCOCC3)c(=O)[nH]c2c1C | -9.534 | -16.64
CC(=O)NCC(=O)NCC1Cn2nnc(-c3cccc(F)c3)c2CO1 (configuration not stated) | 4.299 | -3.944

5 of the entries, repeated:

| structure | Leishmania in macrophages | Toxoplasma |
|---|---|---|
| `COc1ccccc1C(=O)N1CC(=O)N(C2CCCCC2)CC(O)C1` (configuration not stated) | -9.925 | -11.87 |
| `CC(=O)NCC(=O)NCC1Cn2nnc(-c3cccc(F)c3)c2CO1` (configuration not stated) | 4.299 | -3.944 |
| `CN(C)S(=O)(=O)N1CCC(c2ccncc2)CC1` | 4.079 | 16.64 |
| `COCCNc1ccccc1CNC(=O)NCc1ccc(C)s1` | -58.92 | 5.656 |
| `Cc1cc(-c2cnn(CCNC(=O)CCn3cccn3)c2C2CC2)on1` | 11.08 & 20.85 | -6.472 |